Measurements as given in article PMC7817834.
These are yes or no findings as the source states them, for the method shown. Binding seen in cells or lysates may run through a third protein. Some entries that bind do so weakly or less than the wild type. For some assays here: Where a sequence is shown, tags or fusion partners need not be part of it.

T1: KIAA1199 (human (endogenous in RA FLS)) (UniProt Q8WUJ3)
T1 sequence: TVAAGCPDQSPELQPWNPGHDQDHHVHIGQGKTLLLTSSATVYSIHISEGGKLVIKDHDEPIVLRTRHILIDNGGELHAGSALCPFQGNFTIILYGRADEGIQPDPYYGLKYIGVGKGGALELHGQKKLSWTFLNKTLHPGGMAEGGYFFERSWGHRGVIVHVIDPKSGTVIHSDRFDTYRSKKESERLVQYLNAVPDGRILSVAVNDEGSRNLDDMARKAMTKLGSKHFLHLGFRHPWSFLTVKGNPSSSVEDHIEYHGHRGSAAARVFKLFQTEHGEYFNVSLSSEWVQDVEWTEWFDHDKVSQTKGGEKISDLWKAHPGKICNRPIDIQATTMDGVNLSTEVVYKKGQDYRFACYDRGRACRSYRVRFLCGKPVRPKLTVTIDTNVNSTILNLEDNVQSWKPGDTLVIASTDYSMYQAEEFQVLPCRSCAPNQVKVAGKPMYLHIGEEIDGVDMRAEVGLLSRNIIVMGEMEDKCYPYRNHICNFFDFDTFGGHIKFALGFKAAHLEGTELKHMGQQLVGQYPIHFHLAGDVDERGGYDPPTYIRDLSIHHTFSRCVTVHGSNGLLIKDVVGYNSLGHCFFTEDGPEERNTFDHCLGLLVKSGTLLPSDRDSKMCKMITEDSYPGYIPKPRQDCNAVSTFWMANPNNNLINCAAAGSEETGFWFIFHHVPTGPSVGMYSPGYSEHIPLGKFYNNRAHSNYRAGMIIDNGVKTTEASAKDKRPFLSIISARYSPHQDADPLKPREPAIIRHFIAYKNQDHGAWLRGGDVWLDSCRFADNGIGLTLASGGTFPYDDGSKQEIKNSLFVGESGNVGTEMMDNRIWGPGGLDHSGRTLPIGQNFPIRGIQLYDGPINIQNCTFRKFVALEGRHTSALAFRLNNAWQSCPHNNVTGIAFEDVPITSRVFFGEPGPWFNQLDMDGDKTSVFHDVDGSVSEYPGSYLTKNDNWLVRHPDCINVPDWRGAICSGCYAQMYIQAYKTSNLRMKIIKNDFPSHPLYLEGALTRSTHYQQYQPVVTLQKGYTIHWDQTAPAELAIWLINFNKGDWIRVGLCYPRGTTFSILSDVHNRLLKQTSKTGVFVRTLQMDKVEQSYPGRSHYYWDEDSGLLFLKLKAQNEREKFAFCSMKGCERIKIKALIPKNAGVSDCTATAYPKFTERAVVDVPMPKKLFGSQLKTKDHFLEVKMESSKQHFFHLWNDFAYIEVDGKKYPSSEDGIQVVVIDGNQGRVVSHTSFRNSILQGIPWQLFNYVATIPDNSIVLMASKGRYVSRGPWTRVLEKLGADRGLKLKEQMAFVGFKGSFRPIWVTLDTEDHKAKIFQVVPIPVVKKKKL

T2: ANXA1 (stably expressed in ANXA1/293T cells) (human) (UniProt P04083)
T2 sequence: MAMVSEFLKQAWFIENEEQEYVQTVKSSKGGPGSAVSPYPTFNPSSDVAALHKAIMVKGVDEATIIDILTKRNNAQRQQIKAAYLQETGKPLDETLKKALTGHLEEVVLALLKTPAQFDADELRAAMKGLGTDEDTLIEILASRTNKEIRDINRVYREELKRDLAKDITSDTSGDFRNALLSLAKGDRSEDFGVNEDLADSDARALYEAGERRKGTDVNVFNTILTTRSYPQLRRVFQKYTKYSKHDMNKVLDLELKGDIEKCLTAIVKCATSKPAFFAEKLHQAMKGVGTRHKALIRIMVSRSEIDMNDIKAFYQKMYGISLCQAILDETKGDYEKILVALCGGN

B1: ANXA1 (protein, UniProt P04083 1-346)
chain: T2 sequence
B2: WT-KIAA1199 (full-length, C-terminal FLAG) (protein, UniProt Q8WUJ3 31-1361)
chain: T1 sequence

What was measured:
[1] = molecular target: T1, KIAA1199 (human (endogenous in RA FLS)); assay: co-IP; RA FLS whole-cell lysates (RIPA buffer with protease inhibitors and 1% NP-40) incubated with anti-KIAA1199 mAb and anti-ANXA1 mAb, respectively; Protein A/G agarose beads; western blotting
[2] = molecular target: T2, ANXA1 (stably expressed in ANXA1/293T cells) (human); assay: co-IP; lysates of ANXA1/293T cells transfected with full-length or domain-deleted KIAA1199-FLAG, incubated with anti-FLAG and anti-ANXA1 antibody, respectively; Protein A/G agarose beads; western blotting

| binding [1] | binding [2] | Binder |
| --- | --- | --- |
| binds | – | B1 |
| – | binds | B2 |
